No constants are given. Whether binding was seen depends on the method and setting. In cells and extracts the contact can be indirect. Some binding calls cover weakened binding; strength is not graded here. Tags and fused reporters may be left off the sequences shown.
T1: Gce-FLAG (Germ-cell expressed, full length) (Drosophila melanogaster) (UniProt Q9VXW7)
T1 sequence: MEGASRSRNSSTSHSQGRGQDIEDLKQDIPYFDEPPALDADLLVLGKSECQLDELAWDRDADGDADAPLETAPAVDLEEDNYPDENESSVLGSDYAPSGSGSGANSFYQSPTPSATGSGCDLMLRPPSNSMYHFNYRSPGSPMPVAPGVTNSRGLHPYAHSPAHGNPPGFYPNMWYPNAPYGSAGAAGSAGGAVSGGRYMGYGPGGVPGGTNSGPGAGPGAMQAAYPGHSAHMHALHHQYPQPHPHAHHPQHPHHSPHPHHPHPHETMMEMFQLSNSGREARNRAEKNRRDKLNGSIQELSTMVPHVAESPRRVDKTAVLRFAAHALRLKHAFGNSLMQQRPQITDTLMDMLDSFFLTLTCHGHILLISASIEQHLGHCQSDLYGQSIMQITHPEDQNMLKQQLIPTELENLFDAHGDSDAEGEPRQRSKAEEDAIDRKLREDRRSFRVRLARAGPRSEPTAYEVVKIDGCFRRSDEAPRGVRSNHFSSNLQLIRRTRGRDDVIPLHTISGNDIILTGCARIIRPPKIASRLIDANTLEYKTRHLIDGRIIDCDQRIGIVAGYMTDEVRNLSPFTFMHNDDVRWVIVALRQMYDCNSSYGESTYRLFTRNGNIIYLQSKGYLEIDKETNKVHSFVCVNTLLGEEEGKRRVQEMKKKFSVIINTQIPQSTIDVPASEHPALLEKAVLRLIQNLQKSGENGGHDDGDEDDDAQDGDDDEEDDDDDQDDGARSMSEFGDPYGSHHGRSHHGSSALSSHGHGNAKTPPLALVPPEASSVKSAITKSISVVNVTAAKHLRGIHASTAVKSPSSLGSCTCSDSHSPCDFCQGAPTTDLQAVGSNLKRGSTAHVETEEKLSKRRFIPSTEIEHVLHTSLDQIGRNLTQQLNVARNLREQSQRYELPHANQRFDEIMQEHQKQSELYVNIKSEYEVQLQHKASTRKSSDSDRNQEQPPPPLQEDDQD

T2: 14-3-3ζ-HA (Drosophila melanogaster) (UniProt P29310)
T2 sequence: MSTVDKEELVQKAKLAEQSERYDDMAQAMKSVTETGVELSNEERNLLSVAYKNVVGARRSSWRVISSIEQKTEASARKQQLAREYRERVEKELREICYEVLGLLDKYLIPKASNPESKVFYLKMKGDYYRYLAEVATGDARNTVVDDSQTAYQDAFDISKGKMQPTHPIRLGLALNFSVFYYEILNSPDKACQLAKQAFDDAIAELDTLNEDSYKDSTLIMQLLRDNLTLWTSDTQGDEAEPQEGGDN

B1: Gce-FLAG (Germ-cell expressed, full length) (protein, UniProt Q9VXW7 1-959)
chain: T1 sequence
B2: 14-3-3ζ-HA (protein, UniProt P29310-1 1-248)
chain: T2 sequence

Columns and labels:
[1] = biological target: Hsp83-FLAG (Drosophila melanogaster) (UniProt P02828); experiment: co-IP; Kc cells co-transfected with two tagged proteins, DMSO or methoprene (JHA) 2 h; NP-40 lysate; IP with anti-FLAG and protein A/G agarose, 4°C; western blot (Figures 6C, D, E, G, H, 8D)
[2] = biological target: T1, Gce-FLAG (Germ-cell expressed, full length) (Drosophila melanogaster); experiment: as above
[3] = biological target: T2, 14-3-3ζ-HA (Drosophila melanogaster); experiment: co-IP; Kc cells co-transfected with 14-3-3ζ-HA and Hsp83-V5 or Hsp83 S219A-V5, DMSO or methoprene (JHA) 2 h; NP-40 lysate; IP with anti-HA and protein A/G agarose, 4°C; blot for V5 (Figures 6F, 8C)
[4] = biological target: Hsp83-V5 (Drosophila melanogaster) (UniProt P02828); experiment: co-IP; Kc cells co-expressing Hsp83, Met/Gce and 14-3-3, with JHA; IP with anti-HA and with anti-V5; western blot (Figure 6I)

Molecule	binding [1]	binding [3]	also measured
14-3-3ε-HA (from UniProt P92177-3 1-262)	binds	–	–
Hsp83-V5 (from UniProt P02828 1-717)	–	binds	binding [2]: binds
Hsp83^S219A-V5 (from UniProt P02828 1-717)	–	binds	–
B1	–	–	binding [4]: binds
B2	binds	–	–
